± gives the standard deviation of the averaged measurements. Differences between knockout arms are mostly noise.
System: HCC-38
Assay: relative cell number vs DMSO control (72 h) (% of DMSO); higher = less growth inhibition (more cells)
Experimental: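 QMAP-Seq: a pool of 5 breast cancer cell lines (ZR-75-1, SKBR3, HCC-38, MDA-MB-231, BT-20), each carrying 12 doxycycline-inducible Cas9 sgRNA perturbations (11 knockouts plus non-targeting sgNT), was treated with compounds for 72 h at four 10-fold doses (10 nM-10 uM or 1 nM-1 uM range). Barcodes were amplified and sequenced, and cell number was interpolated from 293T spike-in standard curves. The result is expressed as % of the median of DMSO wells. Two biological replicates.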

CCc1c2c(nc3ccc(O)cc13)-c1cc3c(c(=O)n1C2)COC(=O)[C@]3(O)CC [SN38]
Conditions | relative cell number
sgRNA knockout: sgATF3, 1 nM | 95.7 ± 12
sgRNA knockout: sgATF3, 10 nM | 37.1 ± 1.9
sgRNA knockout: sgATF3, 100 nM | 17.8 ± 0.4
sgRNA knockout: sgATF3, 1000 nM | 13.4 ± 2.4
sgRNA knockout: sgATF4, 1 nM | 108 ± 12
sgRNA knockout: sgATF4, 10 nM | 41.3 ± 4
sgRNA knockout: sgATF4, 100 nM | 17.9 ± 0.74
sgRNA knockout: sgATF4, 1000 nM | 13.5 ± 0.28
sgRNA knockout: sgATF6, 1 nM | 91.2 ± 7.6
sgRNA knockout: sgATF6, 10 nM | 42.5 ± 12
sgRNA knockout: sgATF6, 100 nM | 14.8 ± 1.5
sgRNA knockout: sgATF6, 1000 nM | 12.6 ± 6.8
sgRNA knockout: sgATG7, 1 nM | 95 ± 5.2
sgRNA knockout: sgATG7, 10 nM | 39 ± 3.8
sgRNA knockout: sgATG7, 100 nM | 17.8 ± 2.7
sgRNA knockout: sgATG7, 1000 nM | 14.2 ± 3
sgRNA knockout: sgERN1, 1 nM | 96.7 ± 2.6
sgRNA knockout: sgERN1, 10 nM | 38.5 ± 4.9
sgRNA knockout: sgERN1, 100 nM | 17.3 ± 3.1
sgRNA knockout: sgERN1, 1000 nM | 15.8 ± 3.1
sgRNA knockout: sgHSF1, 1 nM | 83.9 ± 4.1
sgRNA knockout: sgHSF1, 10 nM | 37.1 ± 2.7
sgRNA knockout: sgHSF1, 100 nM | 17.5 ± 8.3
sgRNA knockout: sgHSF1, 1000 nM | 17.5 ± 6.9
sgRNA knockout: sgHSF2, 1 nM | 96.4 ± 12
sgRNA knockout: sgHSF2, 10 nM | 41.27 ± 0.28
sgRNA knockout: sgHSF2, 100 nM | 16.5 ± 3.5
sgRNA knockout: sgHSF2, 1000 nM | 13.7 ± 3.1
sgRNA knockout: sgKEAP1, 1 nM | 74.6 ± 1.5
sgRNA knockout: sgKEAP1, 10 nM | 43.5 ± 7.5
sgRNA knockout: sgKEAP1, 100 nM | 14.352 ± 0.0094
sgRNA knockout: sgKEAP1, 1000 nM | 10.8 ± 7.7
sgRNA knockout: sgNFE2L2, 1 nM | 105 ± 12
sgRNA knockout: sgNFE2L2, 10 nM | 35.8 ± 4.5
sgRNA knockout: sgNFE2L2, 100 nM | 15.9 ± 0.62
sgRNA knockout: sgNFE2L2, 1000 nM | 14.3 ± 1.1
sgRNA knockout: sgSLC35F2, 1 nM | 105 ± 5.4
sgRNA knockout: sgSLC35F2, 10 nM | 45.6 ± 14
sgRNA knockout: sgSLC35F2, 100 nM | 16.7 ± 1.6
sgRNA knockout: sgSLC35F2, 1000 nM | 15.6 ± 1.8
sgRNA knockout: sgXBP1, 1 nM | 99.3 ± 14
sgRNA knockout: sgXBP1, 10 nM | 34.9 ± 4.9
sgRNA knockout: sgXBP1, 100 nM | 16 ± 0.72
sgRNA knockout: sgXBP1, 1000 nM | 14 ± 1.9

CC(=O)Nc1nc(C)c(S(=O)(=O)Nc2ccc(C(O)(C(F)(F)F)C(F)(F)F)cc2)s1 [SR1001]
Conditions | relative cell number
sgRNA knockout: sgATF3, 10 nM | 103 ± 9.3
sgRNA knockout: sgATF3, 100 nM | 99.3 ± 8.5
sgRNA knockout: sgATF3, 1000 nM | 121 ± 14
sgRNA knockout: sgATF3, 10000 nM | 106 ± 4.3
sgRNA knockout: sgATF4, 10 nM | 100 ± 12
sgRNA knockout: sgATF4, 100 nM | 93.8 ± 5.9
sgRNA knockout: sgATF4, 1000 nM | 111 ± 6.9
sgRNA knockout: sgATF4, 10000 nM | 103 ± 16
sgRNA knockout: sgATF6, 10 nM | 101 ± 14
sgRNA knockout: sgATF6, 100 nM | 92.6 ± 5.6
sgRNA knockout: sgATF6, 1000 nM | 118 ± 8.2
sgRNA knockout: sgATF6, 10000 nM | 108 ± 32
sgRNA knockout: sgATG7, 10 nM | 97.7 ± 6.8
sgRNA knockout: sgATG7, 100 nM | 95.1 ± 8.8
sgRNA knockout: sgATG7, 1000 nM | 119 ± 15
sgRNA knockout: sgATG7, 10000 nM | 104 ± 14
sgRNA knockout: sgERN1, 10 nM | 91.5 ± 9.4
sgRNA knockout: sgERN1, 100 nM | 98.5 ± 7.5
sgRNA knockout: sgERN1, 1000 nM | 122 ± 11
sgRNA knockout: sgERN1, 10000 nM | 112 ± 14
sgRNA knockout: sgHSF1, 10 nM | 122 ± 20
sgRNA knockout: sgHSF1, 100 nM | 106 ± 2.4
sgRNA knockout: sgHSF1, 1000 nM | 129 ± 18
sgRNA knockout: sgHSF1, 10000 nM | 128 ± 37
sgRNA knockout: sgHSF2, 10 nM | 102 ± 5.6
sgRNA knockout: sgHSF2, 100 nM | 96.8 ± 8.1
sgRNA knockout: sgHSF2, 1000 nM | 125 ± 20
sgRNA knockout: sgHSF2, 10000 nM | 117 ± 25
sgRNA knockout: sgKEAP1, 10 nM | 117 ± 12
sgRNA knockout: sgKEAP1, 100 nM | 100 ± 2.1
sgRNA knockout: sgKEAP1, 1000 nM | 147 ± 39
sgRNA knockout: sgKEAP1, 10000 nM | 137 ± 36
sgRNA knockout: sgNFE2L2, 10 nM | 91.5 ± 5.8
sgRNA knockout: sgNFE2L2, 100 nM | 100 ± 18
sgRNA knockout: sgNFE2L2, 1000 nM | 106 ± 19
sgRNA knockout: sgNFE2L2, 10000 nM | 99.3 ± 15
sgRNA knockout: sgSLC35F2, 10 nM | 91.9 ± 15
sgRNA knockout: sgSLC35F2, 100 nM | 104 ± 7
sgRNA knockout: sgSLC35F2, 1000 nM | 113 ± 17
sgRNA knockout: sgSLC35F2, 10000 nM | 99.6 ± 14
sgRNA knockout: sgXBP1, 10 nM | 90.8 ± 5.3
sgRNA knockout: sgXBP1, 100 nM | 99.3 ± 8.8
sgRNA knockout: sgXBP1, 1000 nM | 117 ± 9.6
sgRNA knockout: sgXBP1, 10000 nM | 103 ± 26

CC(C)[C@H](O)C(=O)N[C@@H](C)C(=O)N[C@@H]1C(=O)N(C)CCc2ccccc21 [Semagacestat]
Conditions | relative cell number
sgRNA knockout: sgATF3, 10 nM | 99.8 ± 5.7
sgRNA knockout: sgATF3, 100 nM | 113 ± 4.9
sgRNA knockout: sgATF3, 1000 nM | 98.52 ± 0.4
sgRNA knockout: sgATF3, 10000 nM | 80.2 ± 3.5
sgRNA knockout: sgATF4, 10 nM | 95.4 ± 10
sgRNA knockout: sgATF4, 100 nM | 103 ± 18
sgRNA knockout: sgATF4, 1000 nM | 114 ± 10
sgRNA knockout: sgATF4, 10000 nM | 75.8 ± 1.2
sgRNA knockout: sgATF6, 10 nM | 110 ± 15
sgRNA knockout: sgATF6, 100 nM | 101 ± 21
sgRNA knockout: sgATF6, 1000 nM | 114 ± 10
sgRNA knockout: sgATF6, 10000 nM | 95.3 ± 3.5
sgRNA knockout: sgATG7, 10 nM | 95.5 ± 5.6
sgRNA knockout: sgATG7, 100 nM | 106 ± 11
sgRNA knockout: sgATG7, 1000 nM | 108 ± 3.8
sgRNA knockout: sgATG7, 10000 nM | 81.1 ± 8.9
sgRNA knockout: sgERN1, 10 nM | 96.8 ± 5.1
sgRNA knockout: sgERN1, 100 nM | 102 ± 15
sgRNA knockout: sgERN1, 1000 nM | 111 ± 7.6
sgRNA knockout: sgERN1, 10000 nM | 88.2 ± 8.2
sgRNA knockout: sgHSF1, 10 nM | 91.5 ± 9.2
sgRNA knockout: sgHSF1, 100 nM | 99.5 ± 35
sgRNA knockout: sgHSF1, 1000 nM | 98.2 ± 22
sgRNA knockout: sgHSF1, 10000 nM | 98.7 ± 24
sgRNA knockout: sgHSF2, 10 nM | 95.3 ± 12
sgRNA knockout: sgHSF2, 100 nM | 96.8 ± 0.99
sgRNA knockout: sgHSF2, 1000 nM | 107 ± 21
sgRNA knockout: sgHSF2, 10000 nM | 91.7 ± 7.3
sgRNA knockout: sgKEAP1, 10 nM | 114 ± 7.3
sgRNA knockout: sgKEAP1, 100 nM | 86.7 ± 11
sgRNA knockout: sgKEAP1, 1000 nM | 99 ± 20
sgRNA knockout: sgKEAP1, 10000 nM | 111 ± 11
sgRNA knockout: sgNFE2L2, 10 nM | 99.6 ± 9.8
sgRNA knockout: sgNFE2L2, 100 nM | 105 ± 18
sgRNA knockout: sgNFE2L2, 1000 nM | 114 ± 2.8
sgRNA knockout: sgNFE2L2, 10000 nM | 78.5 ± 4.2
sgRNA knockout: sgSLC35F2, 10 nM | 96.8 ± 11
sgRNA knockout: sgSLC35F2, 100 nM | 97.3 ± 6.1
sgRNA knockout: sgSLC35F2, 1000 nM | 99.05 ± 0.32
sgRNA knockout: sgSLC35F2, 10000 nM | 84.7 ± 2.6
sgRNA knockout: sgXBP1, 10 nM | 97.6 ± 2.4
sgRNA knockout: sgXBP1, 100 nM | 103 ± 4.2
sgRNA knockout: sgXBP1, 1000 nM | 101.9 ± 0.9
sgRNA knockout: sgXBP1, 10000 nM | 86 ± 3.9
